These are yes or no findings as the source states them, for the method shown. Binding seen in cells or lysates may run through a third protein. Some entries that bind do so weakly or less than the wild type.
Columns and labels:
[1] = biological target: FLAG-tagged hnRNPUL1 WT (full length) (human) (UniProt Q9BUJ2); assay: co-IP
[2] = biological target: coilin (human (endogenous in HCT116-derived hnRNPUL1-AID cells)) (UniProt P38432); assay: co-IP

Sequences of proteins named here, by UniProt entry; tags and fusion partners are left off.
UniProt Q9BUJ2: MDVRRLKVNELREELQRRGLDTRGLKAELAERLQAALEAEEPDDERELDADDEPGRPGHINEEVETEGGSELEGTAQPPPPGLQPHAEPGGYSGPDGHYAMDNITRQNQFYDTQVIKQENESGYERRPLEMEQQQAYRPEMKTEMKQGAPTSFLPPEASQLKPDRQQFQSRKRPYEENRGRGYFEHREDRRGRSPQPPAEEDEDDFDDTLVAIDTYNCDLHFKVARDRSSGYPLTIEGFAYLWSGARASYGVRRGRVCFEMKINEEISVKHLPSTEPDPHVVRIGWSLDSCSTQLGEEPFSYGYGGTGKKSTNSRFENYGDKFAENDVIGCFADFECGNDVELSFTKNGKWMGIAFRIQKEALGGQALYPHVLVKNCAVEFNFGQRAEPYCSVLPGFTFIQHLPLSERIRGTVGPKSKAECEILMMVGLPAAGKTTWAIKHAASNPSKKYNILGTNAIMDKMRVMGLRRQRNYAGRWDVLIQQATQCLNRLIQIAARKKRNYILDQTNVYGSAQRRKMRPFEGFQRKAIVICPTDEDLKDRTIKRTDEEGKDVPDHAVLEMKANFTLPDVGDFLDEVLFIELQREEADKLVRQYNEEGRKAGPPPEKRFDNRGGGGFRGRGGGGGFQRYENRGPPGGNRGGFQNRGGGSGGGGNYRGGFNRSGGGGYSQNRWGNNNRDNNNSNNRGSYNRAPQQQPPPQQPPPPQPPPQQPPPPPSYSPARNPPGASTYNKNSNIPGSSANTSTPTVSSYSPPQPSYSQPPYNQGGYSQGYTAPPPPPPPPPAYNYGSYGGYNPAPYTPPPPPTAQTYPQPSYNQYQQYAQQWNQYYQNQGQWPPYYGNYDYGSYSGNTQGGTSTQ
UniProt P38432: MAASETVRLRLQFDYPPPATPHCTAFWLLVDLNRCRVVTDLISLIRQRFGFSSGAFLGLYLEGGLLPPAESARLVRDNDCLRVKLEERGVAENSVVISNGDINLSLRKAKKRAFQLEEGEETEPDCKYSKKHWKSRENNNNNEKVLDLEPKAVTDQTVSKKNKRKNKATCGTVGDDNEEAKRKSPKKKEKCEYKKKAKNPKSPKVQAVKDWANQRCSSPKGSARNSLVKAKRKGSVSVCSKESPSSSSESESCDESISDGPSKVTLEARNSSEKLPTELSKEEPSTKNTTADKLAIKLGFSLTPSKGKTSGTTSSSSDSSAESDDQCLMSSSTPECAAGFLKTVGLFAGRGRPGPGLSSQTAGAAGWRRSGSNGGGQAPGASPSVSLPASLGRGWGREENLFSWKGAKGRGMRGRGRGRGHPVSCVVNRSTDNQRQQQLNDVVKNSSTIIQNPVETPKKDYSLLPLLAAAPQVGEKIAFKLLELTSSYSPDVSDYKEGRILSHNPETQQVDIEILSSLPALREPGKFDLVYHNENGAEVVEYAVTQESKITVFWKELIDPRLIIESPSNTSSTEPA

binding [1]	binding [2]	Binder
binds	–	RBM7 (protein, UniProt Q9Y580 1-266) MGAAAAEADRTLFVGNLETKVTEELLFELFHQAGPVIKVKIPKDKDGKPKQFAFVNFKHEVSVPYAMNLLNGIKLYGRPIKIQFRSGSSHAPQDVSLSYPQHHVGNSSPTSTSPSRYERTMDNMTSSAQIIQRSFSSPENFQRQAVMNSALRQMSYGGKFGSSPLDQSGFSPSVQSHSHSFNQSSSSQWRQGTPSSQRKVRMNSYPYLADRHYSREQRYTDHGSDHHYRGKRDDFFYEDRNHDDWSHDYDNRRDSSRDGKWRSSRH
–	binds	SART3 (protein, UniProt Q15020 1-963) MATAAETSASEPEAESKAGPKADGEEDEVKAARTRRKVLSRAVAAATYKTMGPAWDQQEEGVSESDGDEYAMASSAESSPGEYEWEYDEEEEKNQLEIERLEEQLSINVYDYNCHVDLIRLLRLEGELTKVRMARQKMSEIFPLTEELWLEWLHDEISMAQDGLDREHVYDLFEKAVKDYICPNIWLEYGQYSVGGIGQKGGLEKVRSVFERALSSVGLHMTKGLALWEAYREFESAIVEAARLEKVHSLFRRQLAIPLYDMEATFAEYEEWSEDPIPESVIQNYNKALQQLEKYKPYEEALLQAEAPRLAEYQAYIDFEMKIGDPARIQLIFERALVENCLVPDLWIRYSQYLDRQLKVKDLVLSVHNRAIRNCPWTVALWSRYLLAMERHGVDHQVISVTFEKALNAGFIQATDYVEIWQAYLDYLRRRVDFKQDSSKELEELRAAFTRALEYLKQEVEERFNESGDPSCVIMQNWARIEARLCNNMQKARELWDSIMTRGNAKYANMWLEYYNLERAHGDTQHCRKALHRAVQCTSDYPEHVCEVLLTMERTEGSLEDWDIAVQKTETRLARVNEQRMKAAEKEAALVQQEEEKAEQRKRARAEKKALKKKKKIRGPEKRGADEDDEKEWGDDEEEQPSKRRRVENSIPAAGETQNVEVAAGPAGKCAAVDVEPPSKQKEKAASLKRDMPKVLHDSSKDSITVFVSNLPYSMQEPDTKLRPLFEACGEVVQIRPIFSNRGDFRGYCYVEFKEEKSALQALEMDRKSVEGRPMFVSPCVDKSKNPDFKVFRYSTSLEKHKLFISGLPFSCTKEELEEICKAHGTVKDLRLVTNRAGKPKGLAYVEYENESQASQAVMKMDGMTIKENIIKVAISNPPQRKVPEKPETRKAPGGPMLLPQTYGARGKGRTQLSLLPRALQRPSAAAPQAENGPAAAPAVAAPAATEAPKMSNADFAKLFLRK

— publication doi:10.1101/2023.07.22.550030
